Reference: PubChem BioAssay AID602196 (INSERM, 2012)

- Screen: 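Modifiers of cisplatin sensitivity in A549 cells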
- Cell system: human A549 lung cancer cells
- Reagents: siRNA pair against human genes
- Duration: 48 h transfection before cisplatin; time from cisplatin to read-out not stated
- Challenge: cisplatin at a dose killing half of control-siRNA cells; exact dose and duration not given
- Measured: 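Cisplatin cell death as a shift from the 50% death seen with control siRNA; siRNAs toxic or growth-blocking alone scored 0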
- Scale: two-siRNA summed score (-2 to +2): higher = both siRNAs protect from cisplatin killing; -2 means both sensitise; mean protection from cisplatin (shift in death) and protection from cisplatin (shift in death), siRNA C: higher = protection from cisplatin killing
- Rule for the call: 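Each siRNA scores 0 if harmful alone by LDH or WST-1, otherwise +1 if it reduces and -1 if it increases cisplatin killing; a gene is active when both siRNAs agree (sum +2 or -2)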
- Calls: active = both siRNAs shift cisplatin killing the same way; inactive = no consistent shift, or siRNA harmful alone
The deposit covers about 23,000 reagents; this is an unselected part. 455 of them (2%) count as active. 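Active includes both protection and sensitisation; some change values fall well beyond the stated -50 to +50 range.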 Not all columns of the deposit are shown. Not given: the amount of reagent.

target gene	PubChem SID	two-siRNA summed score (-2 to +2)	mean protection from cisplatin (shift in death) (%)	protection from cisplatin (shift in death), siRNA C (%)	Outcome
LOC400846	SID131513359	0	6.5	8.6	inactive
WWTR1	SID131514804	0	8.3	10.9	inactive
DIRAS1	SID131510346	0	3.2	8.8	inactive
ACER1	SID131511566	0	4.5	-3	inactive
PTPN22	SID131516513	0	11	8.6	inactive
CD63	SID131508333	0	0.9	-3.9	inactive
HUS1B	SID131513658	0	6.8	-3.6	inactive
LINC02579	SID131511607	0	4.5	8.4	inactive
CLDN1	SID131520074	1	8.6	17.3	inactive
LOC440318	SID131515440	0	9.2	13.7	inactive
IKZF3	SID131517720	0	14.5	19.9	inactive
RAB14	SID131500427	-1	-34.9	-22.3	inactive
CNBD2	SID131504750	0	-4.6	-9.5	inactive
KRT20	SID131519570	1	6.4	14.4	inactive
NENF	SID131518063	0	16.2	20.7	inactive
FCHSD1	SID131508199	0	0.8	-4	inactive
ZSCAN12	SID131512787	0	5.9	3.9	inactive
SSX7	SID131512191	0	5.2	7.4	inactive
GPR84	SID131501144	-1	-12	-8.5	inactive
LOC442571	SID131511652	0	4.6	8.8	inactive
ADAD1	SID131515802	0	9.7	17	inactive
SNED1	SID131504938	0	-4.1	-10.7	inactive
POMGNT1	SID131514629	0	8	10	inactive
GRK1	SID131521699	1	14.5	27.3	inactive
ASXL1	SID131509461	0	2.2	1.4	inactive
LOC283604	SID131519005	1	0.6	-9.1	inactive
RARRES1	SID131503590	0	-9.1	-16.5	inactive
LOC442483	SID131513705	0	6.9	6.5	inactive
ITIH4	SID131509294	0	2	11	inactive
PNRC1	SID131506777	0	-1	-7.1	inactive
FAM187B	SID131504443	0	-5.4	30	inactive
PAFAH2	SID131513087	0	6.2	2.3	inactive
CCDC62	SID131509872	0	2.6	-3.3	inactive
CCDC71	SID131514251	0	7.6	1.8	inactive
HTN1	SID131521025	1	11.9	11.8	inactive
LOC283343	SID131517309	0	13	3.6	inactive
ALOXE3	SID131504120	0	-6.5	-11.7	inactive
GDNF	SID131513532	0	6.7	6	inactive
EIF4G2	SID131508197	0	0.8	-5.7	inactive
CD84	SID131514775	0	8.2	14.9	inactive
OSTCP1	SID131500405	-2	-12.9	-15.4	active
ABCD2	SID131500862	-1	-15	-4.4	inactive
ABCD2	SID131503819	0	-7.6	-1.4	inactive
SMPD3	SID131510598	0	3.4	5.6	inactive
MYEOV	SID131508727	0	1.4	7.9	inactive
ABHD2	SID131512748	0	5.8	10.9	inactive
FGF20	SID131506607	0	-1.2	-3.7	inactive
LOC389393	SID131521423	1	13.4	11.3	inactive
OR13C4	SID131520867	1	11.4	13.4	inactive
KLHL22	SID131512077	0	5.1	-2	inactive
PRDM10	SID131517962	0	15.6	31.6	inactive
SPRR1B	SID131503668	0	-8.6	-6.4	inactive
TKTL1	SID131501390	-1	-10.1	3.1	inactive
FAH	SID131516373	0	10.7	20.6	inactive
OLFM1	SID131501271	-1	-10.9	3.5	inactive
HBB	SID131511052	0	3.9	4.3	inactive
SUGCT	SID131515556	0	9.3	15.2	inactive

8 entries already listed, arranged by “mean protection from cisplatin (shift in death) (%)”, high to low.
target gene	PubChem SID	two-siRNA summed score (-2 to +2)	mean protection from cisplatin (shift in death) (%)	protection from cisplatin (shift in death), siRNA C (%)	Outcome
IKZF3	SID131517720	0	14.5	19.9	inactive
PTPN22	SID131516513	0	11	8.6	inactive
LOC440318	SID131515440	0	9.2	13.7	inactive
CLDN1	SID131520074	1	8.6	17.3	inactive
HUS1B	SID131513658	0	6.8	-3.6	inactive
ACER1	SID131511566	0	4.5	-3	inactive
LINC02579	SID131511607	0	4.5	8.4	inactive
CD63	SID131508333	0	0.9	-3.9	inactive
